Results deposited as PubChem BioAssay AID504764 (Drosophila RNAi Screening Center, 2011)

Test: 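Genes whose knock-down alters Notch-dependent transcription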 (primary screen)
System: Drosophila Kc167 cells
Reagent: long dsRNA against Drosophila genes
Duration: about 5 days (4 days dsRNA, then 24 h after transfection)
Challenge: transfection of constitutively active membrane-tethered Notch lacking the extracellular domain, read 24 h later
Detection: 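Firefly luciferase from an E(spl)m3 reporter with active Notch, plus control-promoter and uninduced reporter wells for normalisation; unnormalised counts, duplicate wells a and b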
Reading the numbers: induced reporter light, run 1, well a and induced reporter light, run 1, well b: higher = more light from the Notch target reporter with active Notch; control promoter light, run 1, well a and control promoter light, run 1, well b: higher = more light from the viral control promoter (cell number, transfection, viability); uninduced reporter light, run 1, well a: higher = more light from the Notch target reporter without active Notch
Active means: 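Hit if the duplicate-averaged log2 ratio of induced to control-promoter light gives a plate-wise z beyond ±2, or induced to uninduced beyond ±1.8; weak-control or discordant-duplicate wells dropped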
Calls: active = modifier hit (raised or lowered Notch signal); inactive = not a hit
The deposit covers about 22,000 reagents; shown is a random part of those with a known target gene and a result. In the full data, 403 (1.9%) got an active call. 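Unnormalised raw counts per well; ratio z-scores behind the hit calls and whether each hit raises or lowers signal are not deposited.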 Entries without a mark were called inactive. A plus sign joins genes that one reagent is predicted to hit. The record does not give: the amount of reagent.

For Grx5 [DRSC19593], the values are induced reporter light, run 1, well a = 86355; induced reporter light, run 1, well b = 82775; control promoter light, run 1, well a = 1.41e5; control promoter light, run 1, well b = 1.25e5; uninduced reporter light, run 1, well a = 13970.
Prosalpha4T1 [DRSC16800] showed induced reporter light, run 1, well a = 1.48e5; induced reporter light, run 1, well b = 1.34e5; control promoter light, run 1, well a = 1.70e5; control promoter light, run 1, well b = 1.62e5; uninduced reporter light, run 1, well a = 8890.
With knock-down of CG6937 + btn [DRSC16917], the screen gave induced reporter light, run 1, well a = 2.08e5; induced reporter light, run 1, well b = 1.48e5; control promoter light, run 1, well a = 1.97e5; control promoter light, run 1, well b = 1.88e5; uninduced reporter light, run 1, well a = 15950.
Against CG2187 [DRSC15425], the entry reads induced reporter light, run 1, well a = 1.38e5; induced reporter light, run 1, well b = 1.19e5; control promoter light, run 1, well a = 1.91e5; control promoter light, run 1, well b = 1.94e5; uninduced reporter light, run 1, well a = 9545.
Against CG3618 [DRSC11746], the entry reads induced reporter light, run 1, well a = 89455; induced reporter light, run 1, well b = 1.11e5; control promoter light, run 1, well a = 87950; control promoter light, run 1, well b = 80590; uninduced reporter light, run 1, well a = 7255.
With knock-down of CG14635 [DRSC17945] the results were induced reporter light, run 1, well a = 1.35e5; induced reporter light, run 1, well b = 1.14e5; control promoter light, run 1, well a = 2.60e5; control promoter light, run 1, well b = 2.05e5; uninduced reporter light, run 1, well a = 8135.
Against Pcf11 [DRSC05983], the values are induced reporter light, run 1, well a = 1.26e5; induced reporter light, run 1, well b = 96905; control promoter light, run 1, well a = 51340; control promoter light, run 1, well b = 54145; uninduced reporter light, run 1, well a = 6380.
CG15534 [DRSC15070] scored induced reporter light, run 1, well a = 1.26e5; induced reporter light, run 1, well b = 1.19e5; control promoter light, run 1, well a = 1.52e5; control promoter light, run 1, well b = 1.43e5; uninduced reporter light, run 1, well a = 9720.
Depletion of CG31198 [DRSC15891] gave: induced reporter light, run 1, well a = 1.80e5; induced reporter light, run 1, well b = 1.89e5; control promoter light, run 1, well a = 2.14e5; control promoter light, run 1, well b = 2.27e5; uninduced reporter light, run 1, well a = 17155.
For Ance-2 [DRSC02539], the entry reads induced reporter light, run 1, well a = 1.32e5; induced reporter light, run 1, well b = 1.35e5; control promoter light, run 1, well a = 1.59e5; control promoter light, run 1, well b = 1.88e5; uninduced reporter light, run 1, well a = 10592.
After knock-down of CG16985 [DRSC08501], the screen gave induced reporter light, run 1, well a = 88165; induced reporter light, run 1, well b = 97785; control promoter light, run 1, well a = 1.39e5; control promoter light, run 1, well b = 1.27e5; uninduced reporter light, run 1, well a = 5935.
Knock-down of Balat [DRSC06852] gave: induced reporter light, run 1, well a = 1.53e5; induced reporter light, run 1, well b = 1.24e5; control promoter light, run 1, well a = 1.11e5; control promoter light, run 1, well b = 1.32e5; uninduced reporter light, run 1, well a = 9228.
Depletion of Jheh1 [DRSC06529] resulted in: induced reporter light, run 1, well a = 99710; induced reporter light, run 1, well b = 98440; control promoter light, run 1, well a = 1.31e5; control promoter light, run 1, well b = 1.46e5; uninduced reporter light, run 1, well a = 7995.
Silencing of mus101 [DRSC19388] came out at: induced reporter light, run 1, well a = 1.01e5 (active); induced reporter light, run 1, well b = 85060; control promoter light, run 1, well a = 72425; control promoter light, run 1, well b = 81020; uninduced reporter light, run 1, well a = 5755.
Against GluRIIE [DRSC13431], the entry reads induced reporter light, run 1, well a = 97200; induced reporter light, run 1, well b = 1.03e5; control promoter light, run 1, well a = 1.03e5; control promoter light, run 1, well b = 1.20e5; uninduced reporter light, run 1, well a = 10505.
For t [DRSC17815], the values are induced reporter light, run 1, well a = 91810; induced reporter light, run 1, well b = 87790; control promoter light, run 1, well a = 1.25e5; control promoter light, run 1, well b = 1.54e5; uninduced reporter light, run 1, well a = 6810.
For sli [DRSC07684], the values are induced reporter light, run 1, well a = 68680; induced reporter light, run 1, well b = 96390; control promoter light, run 1, well a = 1.23e5; control promoter light, run 1, well b = 88510; uninduced reporter light, run 1, well a = 8350.
Spn42De [DRSC05011] scored induced reporter light, run 1, well a = 2.11e5; induced reporter light, run 1, well b = 1.93e5; control promoter light, run 1, well a = 2.14e5; control promoter light, run 1, well b = 2.02e5; uninduced reporter light, run 1, well a = 19135.
